# Where a name gives a salt, the structure may show the parent alone. The list shows a part of the results. This data set is noisy: repeats of one test often differ as much as different tests do.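 In a drug-repurposing library screen, luminescence reads luciferase driven by eight TEAD-binding elements, stably integrated into human kidney-derived cells. Compounds scoring over five robust Z scores above the plate mean are called hits.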
# System: HEK293A TEAD-LUC reporter
# Test: TEAD-luciferase reporter activity (YAP activation), robust Z score vs plate; higher = stronger YAP/TEAD activation
# Conditions: 24 h
SMILES,TEAD-luciferase reporter activity (compound concentration: 200 nM),TEAD-luciferase reporter activity (compound concentration: 2 uM),TEAD-luciferase reporter activity (compound concentration: 10 uM)
O=C(O)CCc1cc(I)c(Oc2ccc(O)cc2)c(I)c1,inactive: -2.21,inactive: -0.389,inactive: -0.187
CC1(C)N=C(N)N=C(N)N1c1ccc(Cl)cc1 [Cycloguanil (hydrochloride)],inactive: -0.0965,,inactive: -0.722
CC1(C)N=C(N)N=C(N)N1c1ccc(Cl)cc1,,inactive: -0.252,
COC(OC)[C@@]1(C)Oc2ccc(N)cc2[C@@H](N/C(=N/C#N)NCc2ccccc2)[C@@H]1O,inactive: -1.04,inactive: -0.692,inactive: 1.4
Cc1ccc(C(=O)NC2CCN(c3nc4ncccc4o3)CC2)cc1,inactive: -1.38,,inactive: 0.649
CC(C)(Sc1cc(C(C)(C)C)c(O)c(C(C)(C)C)c1)Sc1cc(C(C)(C)C)c(OCC(=O)O)c(C(C)(C)C)c1,inactive: 4.03,inactive: -1.1,inactive: -0.584
O=S(=O)([O-])Oc1ccc(C(c2ccc(OS(=O)(=O)[O-])cc2)c2ccccn2)cc1 [Sodium picosulfate],inactive: -1.13,inactive: 0.375,inactive: -0.144
C#Cc1ccc(-c2ccccc2F)cc1,inactive: 0.499,inactive: -0.683,inactive: -0.766
O=P(O)(O)C(CCCc1cccc(Oc2ccccc2)c1)S(=O)(=O)O (stereo not given),inactive: -1.32,inactive: -1.04,inactive: -0.235
CC(=O)[C@@]1(O)CC[C@H]2[C@@H]3C[C@H](C)C4=CC(=O)CC[C@]4(C)[C@H]3CC[C@@]21C,inactive: 0.0479,,inactive: 2.26
"CC(=O)[C@@]1(O)CC[C@H]2[C@@H]3C[C@H](C)C4=CC(=O)CC[C@]4(C)[C@H]3CC[C@@]21C [medroxyprogesterone, Inkine]",,inactive: -0.514,
CN1C(=O)c2c(nn(Cc3ccc(-c4cccc(F)n4)cc3)c2Nc2ccccc2)N2C1=N[C@@H]1CCC[C@@H]12,inactive: -0.488,inactive: -0.232,inactive: 1.52
COc1cc(CC(=O)NCCCc2ccc(C)c(C)c2)ccc1OCCN [Davasaicin],inactive: -0.378,inactive: -1.54,inactive: 1.5
COc1cc(/C=C/C2=C(C(=O)[O-])N3C(=O)C(NC(=O)/C(=N/O)c4csc(N)n4)[C@@H]3SC2)on1 (stereo not given in full),inactive: -0.912,inactive: 0.46,inactive: 2.23
Nc1cc(C(F)(F)F)c(-c2nc(N3CCOCC3)nc(N3CCOCC3)n2)cn1,inactive: 0.401,inactive: -1.34,inactive: -1.27
Cc1c(C)c2ccc(OCc3nnc(C(C)C)s3)cc2oc1=O [Atibeprone],inactive: -0.773,inactive: -0.161,inactive: 2.16
Nn1cnc2cc3ccccc3cc2c1=O [Centazolone],inactive: 0.945,inactive: 0.413,inactive: -1.24
NS(=O)(=O)c1cc2c(cc1Cl)NC(CC1CCCC1)NS2(=O)=O (stereo not given) [Cyclopenthiazide],inactive: -1.18,inactive: 0.176,inactive: 2.88
NS(=O)(=O)c1cc2c(cc1C(F)(F)F)NC(Cc1ccccc1)NS2(=O)=O (stereo not given) [Bendrofluazide],inactive: -0.565,,inactive: 4.14
NS(=O)(=O)c1cc2c(cc1C(F)(F)F)NC(Cc1ccccc1)NS2(=O)=O (stereo not given) [bendroflumethiazide],,inactive: -0.3,
C1COC(NC(C2CC2)C2CC2)=N1 [rilmenidine],inactive: -1.25,inactive: 0.623,inactive: 0.931
CC(C)c1ccc2c(c1)c(SC(C)(C)C)c(CC(C)(C)C(=O)O)n2Cc1ccc(Cl)cc1,inactive: -0.399,inactive: 0.383,inactive: -1.33
O=C(CNC(=O)c1cccc(-c2ccc(C(F)(F)F)cc2)c1)NC1CCCC1,inactive: -1.57,,inactive: 4.28
CC12CCC3c4ccc(O)cc4CC(CCCCCCCCCS(=O)CCCC(F)(F)C(F)(F)F)C3C1CCC2O (stereo not given) [fulvestrant],inactive: -1.34,inactive: -1.1,inactive: -0.74
Cn1nnc(-c2ccc3c(c2)[nH]c2nc(Cc4ccccc4)nc(N[C@H]4CC[C@H](N)CC4)c23)n1,inactive: -0.888,active: 5.31,inactive: 1.88
"Nc1ccc(OCCCCCOc2ccc(N)cc2)cc1 [DAPP, Acucela]",inactive: 0.785,,inactive: -0.51
Nc1cccc(CN2CCC(OC(=O)NC(c3ccccc3)c3ccccc3)CC2)c1,inactive: 0.866,inactive: -1.08,inactive: 1.31

# Reformatted with bars between the fields: part of the list above.
SMILES | TEAD-luciferase reporter activity (compound concentration: 200 nM) | TEAD-luciferase reporter activity (compound concentration: 2 uM) | TEAD-luciferase reporter activity (compound concentration: 10 uM)
COc1cc(/C=C/C2=C(C(=O)[O-])N3C(=O)C(NC(=O)/C(=N/O)c4csc(N)n4)[C@@H]3SC2)on1 (stereo not given in full) | inactive: -0.912 | inactive: 0.46 | inactive: 2.23
Cc1c(C)c2ccc(OCc3nnc(C(C)C)s3)cc2oc1=O [Atibeprone] | inactive: -0.773 | inactive: -0.161 | inactive: 2.16
Nn1cnc2cc3ccccc3cc2c1=O [Centazolone] | inactive: 0.945 | inactive: 0.413 | inactive: -1.24
NS(=O)(=O)c1cc2c(cc1Cl)NC(CC1CCCC1)NS2(=O)=O (stereo not given) [Cyclopenthiazide] | inactive: -1.18 | inactive: 0.176 | inactive: 2.88
CC(C)c1ccc2c(c1)c(SC(C)(C)C)c(CC(C)(C)C(=O)O)n2Cc1ccc(Cl)cc1 | inactive: -0.399 | inactive: 0.383 | inactive: -1.33

# (next part)

SMILES,TEAD-luciferase reporter activity (compound concentration: 200 nM),TEAD-luciferase reporter activity (compound concentration: 2 uM),TEAD-luciferase reporter activity (compound concentration: 10 uM)
CN1CCN(C2=NS(=O)(=O)c3cc(Cl)ccc3N2)CC1,inactive: -1.33,inactive: 0.106,inactive: 0.0494
CCOc1cc(C(C)(C)C)ccc1C1=N[C@@](C)(c2ccc(Cl)cc2)[C@@](C)(c2ccc(Cl)cc2)N1C(=O)N1CCN(CCCS(C)(=O)=O)CC1,inactive: -0.967,inactive: -0.293,inactive: 2.66
Cc1cn(-c2cc(NC(=O)c3ccc(C)c(Nc4nccc(-c5cccnc5)n4)c3)cc(C(F)(F)F)c2)cn1 [nilotinib],inactive: -0.878,inactive: -1.56,inactive: 1.5
Nc1cc(-n2cc(C(=O)O)c(=O)c3cc(F)c(N4CC(N)C4)c(Cl)c32)c(F)cc1F,inactive: -0.748,inactive: -1.66,inactive: 1.78
c1cn2cc(-c3ccc4cn[nH]c4c3)nc(Nc3ccc(N4CCOCC4)cc3)c2n1 [Entospletinib dimesylate],inactive: -2.29,inactive: -2.61,inactive: -1.34
O=C(O)COC[C@H]1CC[C@H](COC(=O)N(c2ccccc2)c2ccc(Cl)cc2)CC1 [Ralinepag],inactive: -1.6,inactive: 1.29,inactive: 0.554
Cc1ccc2cc(C(=O)NC3(C(=O)N[C@H](Cc4ccccc4)C(=O)NCC4CCN(CC5CCOCC5)CC4)CCCC3)sc2c1 [Ibodutant],inactive: -0.68,inactive: 0.257,inactive: -0.334
COc1ccc(Nc2nc(N)c(C(=O)c3ccc(OC)cc3)s2)cc1,inactive: -0.207,inactive: -1.25,inactive: 1.27
CCCCCN(C(=O)c1ccccc1)c1ccc2nc(CCC)n(Cc3ccc(-c4ccccc4-c4nnn[nH]4)cc3)c(=O)c2c1,,inactive: -1.24,
CCc1cc(C(N)=O)ccc1-n1nc(C(C)C)c2c(-n3cnc(-c4cnn(C)c4)c3)ccnc21,inactive: 3.61,inactive: 0.37,inactive: -1.39
CCOC(=O)COC1CCN(C(=O)[C@H](C)NC(=O)c2ccc(/C(N)=N/O)cc2)CC1,inactive: -0.519,inactive: -1.74,inactive: -1.51
Cc1cccc(C)c1CN1CCCC12Cc1ccccc1CNC2=O (stereo not given),inactive: 0.165,,inactive: 4.74
C=CCC1(C)C(=O)N(c2ccccc2)c2ccccc21 (stereo not given),inactive: -0.495,inactive: -1.29,inactive: -0.427
COc1cc(S(C)=O)ccc1-c1nc2ncccc2[nH]1 (stereo not given) [sulmazole],inactive: -1.88,inactive: -1,inactive: -2.05
NS(=O)(=O)c1ccc(N2N=C(c3ccc(F)cc3)CC2c2ccccc2F)cc1 (stereo not given) [analog of E-6087],inactive: -1.85,inactive: -1.16,inactive: -0.956
CNS(=O)(=O)c1cc(OC)c(OC)c(C(=O)NC[C@@H]2CCCN2C)c1 [Sulverapride],inactive: -1.74,inactive: -1.29,inactive: -0.872
O=c1c(F)cn(C2CCCO2)c(=O)n1C1CCCO1 (stereo not given),inactive: -2.15,inactive: 0.863,inactive: 0.942
NC(=O)C1CN(CC(=O)Nc2c(Cl)cccc2Cl)CCN1CCCC(c1ccc(F)cc1)c1ccc(F)cc1 (stereo not given) [mioflazine],inactive: 1.5,inactive: 0.546,inactive: -0.4
CNCCCC1(c2ccccc2)OC(C)(C)c2ccccc21 (stereo not given) [talopram],inactive: 1.19,inactive: 0.953,inactive: -0.816
CC(=O)N(CC(O)CN(C(C)=O)c1c(I)c(C(=O)NCC(O)CO)c(I)c(C(=O)NCC(O)CO)c1I)c1c(I)c(C(=O)NCC(O)CO)c(I)c(C(=O)NCC(O)CO)c1I (stereo not given),inactive: 0.596,,inactive: 4.6
CC(=O)N(CC(O)CN(C(C)=O)c1c(I)c(C(=O)NCC(O)CO)c(I)c(C(=O)NCC(O)CO)c1I)c1c(I)c(C(=O)NCC(O)CO)c(I)c(C(=O)NCC(O)CO)c1I (stereo not given) [iodixanol],,inactive: 0.297,
"CC1(C(=O)O)CC[C@]2(C)CC[C@]3(C)C(=CC(=O)[C@@H]4[C@@]5(C)CC[C@H](OC(=O)CCC(=O)O)C(C)(C)C5CC[C@]43C)[C@@H]2C1 (stereo not given in full) [carbenoxolone, York]",inactive: 0.401,inactive: 2.06,inactive: 1.43
CCCCc1cc(NC(=O)c2cc(OC)c(OC)c(OC)c2)n2nccc2n1,inactive: -1.52,inactive: 0.639,inactive: -0.816
C[N+](C)(C)CCOP(=O)([O-])OP(=O)([O-])OCC1OC(n2ccc(N)nc2=O)[C@H](O)[C@@H]1O (stereo not given in full) [citicoline],inactive: 0.676,,inactive: 1.61
CC(=O)NC[C@H]1CN(c2ccc(N3CCN(c4ccccn4)CC3)c(F)c2)C(=O)O1,inactive: 0.0146,inactive: 1.18,inactive: -0.698
C[C@H]1c2c([nH]c3ccc(C(F)(F)F)cc23)C[C@H]2CCN(CCC3(C(=O)O)CCCCC3)C[C@@H]21,inactive: 3.26,inactive: 0.873,inactive: -0.428

# From the supplement of paper PMC10735217
